Experimental data reported in PubChem BioAssay AID2685 (National Center for Advancing Translational Sciences (NCATS), 2010).
The other results are listed elsewhere or left out.

Test: qHTS Assay for Lipid Storage Modulators in Drosophila S3 Cells;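 further: cells counted by Cell Tracker Red CMTPX staining in the red channel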
Details: BODIPY lipid droplet fluorescence, 18-24 h, measured here: cell count max response, cells fed with added oleic acid

Which cell number change does the source give for `O=P(Nc1nccs1)(c1ccccc1)c1ccccc1` here?
Its cell number change is -11.7%.

Which cell number change does the source give for `CC(C)C(=O)NC(Sc1ccccc1)C(Cl)(Cl)Cl` (stereo not drawn) here?
Its cell number change is -1.65%.

For `CP(=O)(Nc1ccc2c(c1)OCCO2)Oc1ccccc1` (stereo not drawn), which cell number change is on record?
Its cell number change is -4.74%.

Which cell number change does the source give for `O=P(Nc1nc2ccccc2s1)(c1ccccc1)c1ccccc1` here?
The cell number change was -6.07%.

For `C[C@H]1OP(=O)(Oc2ccccc2)[C@H](O)[C@H](O)[C@H]1N=[N+]=[N-]` (stereo partly drawn), which cell number change is on record?
Its cell number change is -13%.

With `COc1ccc(OP(C)(=O)Nc2cccc(Br)c2)cc1` (stereo not drawn) as the compound, how does the cell number change read?
The cell number change was 8.59%.

With `Nc1ccc([As](=O)(O)c2ccc([N+](=O)[O-])cc2)cc1` as the compound, how does the cell number change read?
The cell number change was 6.29%.

With `C(Cc1nn[nH]n1)Cc1nn[nH]n1` as the compound, how does the cell number change read?
The cell number change was 4.25%.

Which cell number change does the source give for `O=[As](O)(c1ccccc1)c1ccc(O)cc1` here?
Its cell number change is 20.4%.

With `Cc1cc(-c2cccc3ccccc23)c(C)cn1.O=[N+]([O-])c1cc([N+](=O)[O-])c(O)c([N+](=O)[O-])c1` as the compound, how does the cell number change read?
Its cell number change is -22.8%.

With `CCOC(=O)c1ccc(NP(C)(=O)Oc2ccc(F)cc2)cc1` (stereo not drawn) as the compound, how does the cell number change read?
Its cell number change is -1.84%.

For `O=C(NC1CCS(=O)(=O)C1)NP(=S)(Oc1ccccc1)Oc1ccccc1` (stereo not drawn), which cell number change is on record?
The cell number change was 0%.

For `CCNC(=S)/N=C(\N)N[N+](=O)[O-]`, which cell number change is on record?
The cell number change was -7.54%.

Which cell number change does the source give for `c1ccc(-c2nn[nH]n2)c(-c2nn[nH]n2)c1` here?
The cell number change was 6.95%.

For `Cc1ccc(NP(=O)(Oc2cccc(C)c2)Oc2cccc(C)c2)nc1`, which cell number change is on record?
Its cell number change is -5.15%.

With `CCOC(=O)NC(Sc1ccccc1)C(Cl)(Cl)Cl` (stereo not drawn) as the compound, how does the cell number change read?
The cell number change was -11.3%.

For `CP(=O)(Nc1ccccc1)Oc1ccc(F)cc1` (stereo not drawn), which cell number change is on record?
The cell number change was -18.3%.

Which cell number change does the source give for `Cc1ccccc1OP(=O)(Nc1ccccn1)Oc1ccccc1C` here?
The cell number change was -20.9%.

Which cell number change does the source give for `CN(C)C(=O)Oc1noc2ccccc12` here?
The cell number change was 3.1%.

Which cell number change does the source give for `COC(=O)c1cc2c(s1)N=C(c1ccccc1)N(C)P2(=O)N1CCOCC1` (stereo not drawn) here?
The cell number change was -14%.

Which cell number change does the source give for `CCC(=O)N1C2C3N(C(=O)CC)C1C1N(C(=O)CC)C(C(N1C(=O)CC)N3C(=O)CC)N2C(=O)CC` here?
Its cell number change is 0%.

Which cell number change does the source give for `CCN(CC)CCCOC(=O)C(O)(c1ccccc1)C1CCCCC1` (stereo not drawn) here?
The cell number change was 11.7%.

For `CC(C)(C)C(=O)NC(Sc1ccccc1)C(Cl)(Cl)Cl` (stereo not drawn), which cell number change is on record?
Its cell number change is -3.86%.

With `CCOc1ccc(C2=NCC(CBr)S2)cc1` (stereo not drawn) as the compound, how does the cell number change read?
Its cell number change is 0%.

With `COc1ccccc1OP(=O)(Nc1ccc(C)cn1)Oc1ccccc1OC` as the compound, how does the cell number change read?
Its cell number change is 10.9%.

With `Cc1ccc(OP(=O)(Nc2nccs2)Oc2ccc(C)cc2)cc1` as the compound, how does the cell number change read?
Its cell number change is -2.11%.

With `Clc1ccc(Cl)c(NC2=NCC(CBr)S2)c1` (stereo not drawn) as the compound, how does the cell number change read?
Its cell number change is -2.12%.

Which cell number change does the source give for `CN1CCCC(OC(=O)C(c2ccccc2)c2ccccc2)C1` (stereo not drawn) here?
The cell number change was 1.78%.

For `COc1ccccc1OP(C)(=O)Nc1ccc(C)cc1C` (stereo not drawn), which cell number change is on record?
The cell number change was 6.54%.

Which cell number change does the source give for `CCc1ccc(OP(C)(=O)O)cc1` here?
Its cell number change is 5.35%.

For `Cc1c(NP(C)(=O)Oc2ccc(C(C)C)cc2)c(=O)n(-c2ccccc2)n1C` (stereo not drawn), which cell number change is on record?
The cell number change was -15.5%.

With `Oc1ccccc1CNc1ccccn1` as the compound, how does the cell number change read?
The cell number change was 0%.

With `Cc1cc(SC(NC(=O)c2ccc(F)cc2)C(Cl)(Cl)Cl)ncn1` (stereo not drawn) as the compound, how does the cell number change read?
Its cell number change is 1.82%.
